Test results as given in patent US7291641B2, “Derivatives of heterocycles with 5 members, their preparation and their use as medicaments” (Societe de Conseils de Recherches et d'Applications …, priority 1999, dated 2007).
Some results were stated once for a whole list of compounds, not compound by compound.

tested on: voltage-dependent sodium channels; assay type: binding; conditions: homogenate of rat cortex; [3H] batrachotoxin-A 20-alpha benzoate 5 nM; 1 hour 30 minutes at 25° C.; read-out: IC50 on the bond of tritiated batrachotoxin on the voltage-dependent sodium channels

| SMILES | IC50 [nM] |
| --- | --- |
| c1ccc(CN(Cc2ccccc2)Cc2nc(-c3ccc(-c4ccccc4)cc3)c[nH]2)cc1 [Example 144, N,N-dibenzyl(4-[1,1′-biphenyl]4-yl-1H-imidazol-2-yl)methanamine] | ≤ 1000 |
| CN(Cc1nc(-c2ccc(-c3ccccc3)cc2)c[nH]1)C(=O)OC(C)(C)C [Example 149, 4-(2-{[(tert-butoxycarbonyl)(methyl)amino]methyl}-1H-imidazol-4-yl)-1,1′-biphenyl] | ≤ 1000 |
| Cn1cc(-c2ccccc2)nc1[C@H](N)Cc1c[nH]c2ccccc12 [Example 151, (1R)-2-(1H-indol-3-yl)-1-(1-methyl-4-phenyl-1H-imidazol-2-yl)ethanamine] | ≤ 1000 |
| CC(C)(C)OC(=O)NCCc1nc(-c2ccc(-c3ccccc3)cc2)c[nH]1 [Example 152, 4-(2-{2-[(tert-butoxycarbonyl)amino]ethyl}-1H-imidazol-4-yl)-1,1′-biphenyl] | ≤ 1000 |
| N[C@H](CC1CCCCC1)c1nc(-c2ccc(-c3ccccc3)cc2)c[nH]1 [Example 154] | ≤ 1000 |
| CNCc1nc(-c2ccccc2)c(-c2ccccc2)[nH]1 [Example 162, (4,5-diphenyl-1H-imidazol-2-yl)-N-methylmethanamine] | ≤ 1000 |
| c1ccc(CNCc2nc(-c3ccccc3)c(-c3ccccc3)[nH]2)cc1 [Example 163, N-benzyl(4,5-diphenyl-1H-imidazol-2-yl)methanamine] | ≤ 1000 |
| c1ccc(CNCCc2nc(-c3ccc(-c4ccccc4)cc3)c[nH]2)cc1 [Example 164, N-benzyl-2-(4-[1,1′-biphenyl]-4-yl-1H-imidazol-2-yl)ethanamine] | ≤ 1000 |
| CC(C)(C)OC(=O)N(Cc1ccccc1)Cc1nc(-c2ccc(-c3ccccc3)cc2)c[nH]1 [Example 165, 4-(2-{[benzyl(tert-butoxycarbonyl)amino]methyl}-1H-imidazol-4-yl)-1,1′-biphenyl] | ≤ 1000 |
| N[C@H](CCc1ccccc1)c1nc(-c2ccc(-c3ccccc3)cc2)c[nH]1 [Example 166, (1R)-1-(4-[1,1′-biphenyl]-4-yl-1H-imidazol-2-yl)-3-phenyl-1-propanamine] | ≤ 1000 |
| c1ccc(CNCc2nc(-c3ccc(-c4ccccc4)cc3)c[nH]2)cc1 [Example 168, N-benzyl(4-[1,1′-biphenyl]4-yl-1H-imidazol-2-yl)methanamine] | ≤ 1000 |
| c1ccc(CN[C@H](CC2CCCCC2)c2nc(-c3ccc(-c4ccccc4)cc3)c[nH]2)cc1 [Example 169, (1R)-N-benzyl-1-(4-[1,1′-biphenyl]-4-yl-1H-imidazol-2-yl)-2-cyclohexylethanamine] | ≤ 1000 |
| c1ccc(CC[C@@H](NCc2ccccc2)c2nc(-c3ccc(-c4ccccc4)cc3)c[nH]2)cc1 [Example 170, (1R)-N-benzyl-1-(4-[1,1′-biphenyl]-4-yl-1H-imidazol-2-yl)-3-phenyl-1-propanamine] | ≤ 1000 |
| CC(C)(C)OC(=O)NCCCc1nc(-c2ccc(-c3ccccc3)cc2)c[nH]1 [Example 171, 4-(2-{3-[(tert-butoxycarbonyl)amino]propyl}-1H-imidazol-4-yl)-1,1′-biphenyl] | ≤ 1000 |
| CC(C)(C)NC(=S)NCCc1nc(-c2ccc(-c3ccccc3)cc2)c[nH]1 [Example 172, 4-[2-(2-{[(tert-butylamino)carbothioyl]amino}ethyl)-1H-imidazol-4-yl]-1,1′-biphenyl] | ≤ 1000 |
| CC(C)(C)OC(=O)NCCCCCCc1nc(-c2ccccc2)c[nH]1 [Example 173, tert-butyl 6-(4-phenyl-1H-imidazol-2-yl)hexylcarbamate] | ≤ 1000 |
| CCCCCCNCCc1nc(-c2ccc(-c3ccccc3)cc2)c[nH]1 [Example 176, N-[2-(4-[1,1′-biphenyl]-4-yl-1H-imidazol-2-yl)ethyl]-1-hexanamine] | ≤ 1000 |
| CC(C)(C)NC(=O)NCCc1nc(-c2ccc(-c3ccccc3)cc2)c[nH]1 [Example 177, 4-[2-(2-{[(tert-butylamino)carbonyl]amino}ethyl)-1H-imidazol-4-yl]-1,1′-biphenyl] | ≤ 1000 |
| c1ccc(CNCCCc2nc(-c3ccc(-c4ccccc4)cc3)c[nH]2)cc1 [Example 178, N-benzyl-3-(4-[1,1′-biphenyl]-4-yl-1H-imidazol-2-yl)-1-propanamine] | ≤ 1000 |
| CC[C@H](NC(=O)OC(C)(C)C)c1nc(-c2ccc(-c3ccccc3)cc2)c[nH]1 [Example 194, 4-(2-{(1S)-1-[(tert-butoxycarbonyl)amino]propyl}-1H-imidazol-4-yl)-1,1′-biphenyl] | ≤ 1000 |
| CC[C@H](N)c1nc(-c2ccc(-c3ccccc3)cc2)c[nH]1 [Example 196, (1S)-1-(4-[1,1′-biphenyl]-4-yl-1H-imidazol-2-yl)-1-propanamine] | ≤ 1000 |
| CC[C@H](NCc1ccccc1)c1nc(-c2ccc(-c3ccccc3)cc2)c[nH]1 [Example 198, (1S)-N-benzyl-1-(4-[1,1′-biphenyl]4-yl-1H-imidazol-2-yl)-1-propanamine] | ≤ 1000 |
| CC[C@H](N)c1nc(-c2ccccc2)c(-c2ccccc2)[nH]1 [Example 199, (1S)-1-(4,5-diphenyl-1H-imidazol-2-yl)-1-propanamine] | ≤ 1000 |

| SMILES | IC50 [nM] |
| --- | --- |
| CC(C)(C)COC(=O)NCCc1nc(-c2ccc(-c3ccccc3)cc2)c[nH]1 [Example 203, 4-[2-(2-{[(neopentyloxy)carbonyl]amino}ethyl)-1H-imidazol-4-yl]-1,1′-biphenyl] | ≤ 1000 |
| CC[C@H](NCc1ccccc1)c1nc(-c2ccccc2)c(-c2ccccc2)[nH]1 [Example 204, (1S)-N-benzyl-1-(4,5-diphenyl-1H-imidazol-2-yl)-1-propanamine] | ≤ 1000 |
| CCC[C@@H](NC(=O)OC(C)(C)C)c1nc(-c2ccc(-c3ccccc3)cc2)c[nH]1 [Example 208, 4-(2-{(1R)-1-[(tert-butoxycarbonyl)amino]butyl}-1H-imidazol-4-yl)-1,1′-biphenyl] | ≤ 1000 |
| CCC[C@@H](N)c1nc(-c2ccc(-c3ccccc3)cc2)c[nH]1 [Example 209, (1R)-1-(4-[1,1′-biphenyl]-4-yl-1H-imidazol-2-yl)-1-butanamine] | ≤ 1000 |
| CCC[C@@H](NCc1ccccc1)c1nc(-c2ccc(-c3ccccc3)cc2)c[nH]1 [Example 213, (1R)-N-benzyl-1-(4-[1,1′-biphenyl]-4-yl-1H-imidazol-2-yl)-1-butanamine] | ≤ 1000 |
| CCC[C@@H](NCc1ccccc1)c1nc(-c2ccccc2)c[nH]1 [Example 214, (1R)-N-benzyl-1-(4-phenyl-1H-imidazol-2-yl)-1-butanamine] | ≤ 1000 |
| CCCCN[C@@H](CC)c1nc(-c2ccc(-c3ccccc3)cc2)c[nH]1 [Example 222, N-[(1S)-1-(4-[1,1′-biphenyl]-4-yl-1H-imidazol-2-yl)propyl]-1-butanamine] | ≤ 1000 |
| C[C@@H](NCc1ccccc1)c1nc(-c2ccccc2)c[nH]1 [Example 223, (1R)-N-benzyl-1-(4-phenyl-1H-imidazol-2-yl)ethanamine] | ≤ 1000 |
| O=C(NCCc1nc(-c2ccc(-c3ccccc3)cc2)c[nH]1)OCc1ccccc1 [Example 237, 4-[2-(2-{[(benzyloxy)carbonyl]amino}ethyl)-1H-imidazol-4-yl]-1,1′-biphenyl] | ≤ 1000 |
| CCCCOC(=O)NC(C)(C)c1nc(-c2ccc(-c3ccccc3)cc2)c[nH]1 [Example 238, 4-(2-{1-[(butoxycarbonyl)amino]-1-methylethyl}-1H-imidazol-4-yl)-1,1′-biphenyl] | ≤ 1000 |
| CC(C)COC(=O)NCCc1nc(-c2ccc(-c3ccccc3)cc2)c[nH]1 [Example 239, 4-(2-{2-[(isobutoxycarbonyl)amino]ethyl}-1H-imidazol-4-yl)-1,1′-biphenyl] | ≤ 1000 |
| CCCCOC(=O)N[C@@H](C)c1nc(-c2ccc(-c3ccccc3)cc2)c[nH]1 [Example 241, 4-(2-{(1S)-1-[(butoxycarbonyl)amino]ethyl}-1H-imidazol-4-yl)-1,1′-biphenyl] | ≤ 1000 |
| CCCCOC(=O)N[C@H](C)c1nc(-c2ccc(-c3ccccc3)cc2)c[nH]1 [Example 242, 4-(2-{(1R)-1-[(butoxycarbonyl)amino]ethyl}-1H-imidazol-4-yl)-1,1′-biphenyl] | ≤ 1000 |
| c1ccc(-c2c[nH]c([C@@H](NC3CCCCC3)C3CCCCC3)n2)cc1 [Example 243, N-[(S)-cyclohexyl(4-phenyl-1H-imidazol-2-yl)methyl]-cyclohexanamine] | ≤ 1000 |
| COC(=O)NCCc1nc(-c2ccc(-c3ccccc3)cc2)c[nH]1 [Example 244, 4-(2-{2-[(methoxycarbonyl)amino]ethyl}-1H-imidazol-4-yl)-1,1′-biphenyl] | ≤ 1000 |
| CCCOC(=O)NCCc1nc(-c2ccc(-c3ccccc3)cc2)c[nH]1 [Example 245, 4-(2-{2-[(propoxycarbonyl)amino]ethyl}-1H-imidazol-4-yl)-1,1′-biphenyl] | ≤ 1000 |
| CCOC(=O)NCCc1nc(-c2ccc(-c3ccccc3)cc2)c[nH]1 [Example 246, 4-(2-{2-[(ethoxycarbonyl)amino]ethyl}-1H-imidazol-4-yl)-1,1′-biphenyl] | ≤ 1000 |
| CC(C)(NC(=O)OCc1ccccc1)c1nc(-c2ccc(-c3ccccc3)cc2)c[nH]1 [Example 247, 4-[2-(1-{[(benzyloxy)carbonyl]amino}-1-methylethyl)-1H-imidazol-4-yl]-1,1′-biphenyl] | ≤ 1000 |
| c1ccc(-c2ccc(-c3c[nH]c(CCNC4CCCCC4)n3)cc2)cc1 [Example 249, N-[2-(4-[1,1′-biphenyl]4-yl-1H-imidazol-2-yl)ethyl]-cyclohexanamine] | ≤ 1000 |
| Brc1cccc(-c2c[nH]c(CNC3CCCCC3)n2)c1 [Example 254, N-{[4-(3-bromophenyl)-1H-imidazol-2-yl]methyl}cyclohexanamine] | ≤ 1000 |
| CCCCCCOC(=O)NCCc1nc(-c2ccc(-c3ccccc3)cc2)c[nH]1 [Example 255, hexyl 2-(4-[1,1′-biphenyl]-4-yl-1H-imidazol-2-yl)ethylcarbamate] | ≤ 1000 |
| N[C@H](c1nc(-c2ccc(F)c(F)c2)c[nH]1)C1CCCCC1 [Example 258, (S)-cyclohexyl[4-(3,4-difluorophenyl)-1H-imidazol-2-yl]-methanamine] | ≤ 1000 |
| COc1ccc(-c2c[nH]c([C@@H](N)C3CCCCC3)n2)cc1F [Example 259, (S)-cyclohexyl[4-(3-fluoro-4-methoxyphenyl)-1H-imidazol-2-yl]-methanamine] | ≤ 1000 |
